Data on 33 targets can be found in the supplement of paper PMC10849652.

Protein sequences, listed by entry. Tags and fused reporters are not part of them. Lines headed by an entry give the natural chain unless they say otherwise; changes in a name come on top.
UniProt P35475: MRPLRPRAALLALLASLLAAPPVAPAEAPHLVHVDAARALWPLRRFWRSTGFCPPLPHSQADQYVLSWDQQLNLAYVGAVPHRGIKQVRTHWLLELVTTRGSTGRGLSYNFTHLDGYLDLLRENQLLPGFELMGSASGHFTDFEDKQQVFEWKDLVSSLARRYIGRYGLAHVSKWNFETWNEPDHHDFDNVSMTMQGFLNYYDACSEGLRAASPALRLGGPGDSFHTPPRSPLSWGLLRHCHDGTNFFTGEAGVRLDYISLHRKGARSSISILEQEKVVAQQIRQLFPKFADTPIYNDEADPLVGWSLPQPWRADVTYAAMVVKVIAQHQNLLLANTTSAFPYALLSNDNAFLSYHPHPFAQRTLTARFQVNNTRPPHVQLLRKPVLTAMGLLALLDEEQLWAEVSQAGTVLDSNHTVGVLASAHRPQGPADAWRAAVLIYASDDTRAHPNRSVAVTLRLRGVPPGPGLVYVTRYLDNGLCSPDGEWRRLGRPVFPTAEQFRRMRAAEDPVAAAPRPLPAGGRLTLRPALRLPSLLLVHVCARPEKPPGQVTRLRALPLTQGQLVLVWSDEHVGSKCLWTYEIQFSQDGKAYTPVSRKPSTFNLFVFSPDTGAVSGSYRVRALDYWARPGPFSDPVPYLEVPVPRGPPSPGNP
UniProt Q9BW83: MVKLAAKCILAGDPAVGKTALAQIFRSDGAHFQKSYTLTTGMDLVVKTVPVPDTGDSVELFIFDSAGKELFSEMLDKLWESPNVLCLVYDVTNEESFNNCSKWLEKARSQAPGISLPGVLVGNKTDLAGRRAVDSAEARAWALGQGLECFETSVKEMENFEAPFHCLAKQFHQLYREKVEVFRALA
UniProt Q8NBZ0, whole entry, looked up: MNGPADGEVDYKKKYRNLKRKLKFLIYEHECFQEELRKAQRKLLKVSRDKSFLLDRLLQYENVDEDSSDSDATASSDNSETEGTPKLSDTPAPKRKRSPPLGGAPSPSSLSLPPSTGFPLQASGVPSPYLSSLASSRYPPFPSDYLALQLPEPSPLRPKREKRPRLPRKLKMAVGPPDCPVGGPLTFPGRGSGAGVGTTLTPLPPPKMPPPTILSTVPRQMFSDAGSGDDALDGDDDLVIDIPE
UniProt Q9NPH3, whole entry, looked up: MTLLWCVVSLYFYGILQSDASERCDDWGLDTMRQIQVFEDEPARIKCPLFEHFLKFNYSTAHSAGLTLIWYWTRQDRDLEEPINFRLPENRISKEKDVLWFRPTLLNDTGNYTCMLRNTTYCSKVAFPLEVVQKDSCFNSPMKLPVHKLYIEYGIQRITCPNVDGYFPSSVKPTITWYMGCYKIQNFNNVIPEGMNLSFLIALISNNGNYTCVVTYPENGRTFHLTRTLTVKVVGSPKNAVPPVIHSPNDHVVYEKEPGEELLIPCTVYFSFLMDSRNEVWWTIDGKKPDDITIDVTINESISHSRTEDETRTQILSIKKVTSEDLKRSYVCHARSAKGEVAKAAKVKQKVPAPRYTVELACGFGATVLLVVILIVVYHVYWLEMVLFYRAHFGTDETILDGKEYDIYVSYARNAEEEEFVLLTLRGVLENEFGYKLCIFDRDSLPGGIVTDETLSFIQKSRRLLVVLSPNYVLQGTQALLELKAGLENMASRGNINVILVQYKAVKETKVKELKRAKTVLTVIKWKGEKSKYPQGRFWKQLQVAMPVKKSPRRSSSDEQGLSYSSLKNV
UniProt Q969P0: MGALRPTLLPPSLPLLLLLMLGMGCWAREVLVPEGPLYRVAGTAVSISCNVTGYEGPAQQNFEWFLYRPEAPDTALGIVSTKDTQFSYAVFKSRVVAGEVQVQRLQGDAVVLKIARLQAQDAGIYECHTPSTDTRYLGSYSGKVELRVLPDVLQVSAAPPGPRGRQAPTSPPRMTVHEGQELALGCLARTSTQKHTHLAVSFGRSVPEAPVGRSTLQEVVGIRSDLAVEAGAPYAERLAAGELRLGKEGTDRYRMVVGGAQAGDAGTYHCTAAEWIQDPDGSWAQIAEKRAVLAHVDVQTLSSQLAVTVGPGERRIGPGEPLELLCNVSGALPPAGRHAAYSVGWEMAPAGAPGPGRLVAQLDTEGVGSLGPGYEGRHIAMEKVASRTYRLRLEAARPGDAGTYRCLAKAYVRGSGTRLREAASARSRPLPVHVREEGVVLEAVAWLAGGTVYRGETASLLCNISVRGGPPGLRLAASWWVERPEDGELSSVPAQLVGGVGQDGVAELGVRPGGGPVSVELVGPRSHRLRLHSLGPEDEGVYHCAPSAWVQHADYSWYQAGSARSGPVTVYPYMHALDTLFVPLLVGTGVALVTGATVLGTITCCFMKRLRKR
UniProt Q8N201, whole entry, looked up: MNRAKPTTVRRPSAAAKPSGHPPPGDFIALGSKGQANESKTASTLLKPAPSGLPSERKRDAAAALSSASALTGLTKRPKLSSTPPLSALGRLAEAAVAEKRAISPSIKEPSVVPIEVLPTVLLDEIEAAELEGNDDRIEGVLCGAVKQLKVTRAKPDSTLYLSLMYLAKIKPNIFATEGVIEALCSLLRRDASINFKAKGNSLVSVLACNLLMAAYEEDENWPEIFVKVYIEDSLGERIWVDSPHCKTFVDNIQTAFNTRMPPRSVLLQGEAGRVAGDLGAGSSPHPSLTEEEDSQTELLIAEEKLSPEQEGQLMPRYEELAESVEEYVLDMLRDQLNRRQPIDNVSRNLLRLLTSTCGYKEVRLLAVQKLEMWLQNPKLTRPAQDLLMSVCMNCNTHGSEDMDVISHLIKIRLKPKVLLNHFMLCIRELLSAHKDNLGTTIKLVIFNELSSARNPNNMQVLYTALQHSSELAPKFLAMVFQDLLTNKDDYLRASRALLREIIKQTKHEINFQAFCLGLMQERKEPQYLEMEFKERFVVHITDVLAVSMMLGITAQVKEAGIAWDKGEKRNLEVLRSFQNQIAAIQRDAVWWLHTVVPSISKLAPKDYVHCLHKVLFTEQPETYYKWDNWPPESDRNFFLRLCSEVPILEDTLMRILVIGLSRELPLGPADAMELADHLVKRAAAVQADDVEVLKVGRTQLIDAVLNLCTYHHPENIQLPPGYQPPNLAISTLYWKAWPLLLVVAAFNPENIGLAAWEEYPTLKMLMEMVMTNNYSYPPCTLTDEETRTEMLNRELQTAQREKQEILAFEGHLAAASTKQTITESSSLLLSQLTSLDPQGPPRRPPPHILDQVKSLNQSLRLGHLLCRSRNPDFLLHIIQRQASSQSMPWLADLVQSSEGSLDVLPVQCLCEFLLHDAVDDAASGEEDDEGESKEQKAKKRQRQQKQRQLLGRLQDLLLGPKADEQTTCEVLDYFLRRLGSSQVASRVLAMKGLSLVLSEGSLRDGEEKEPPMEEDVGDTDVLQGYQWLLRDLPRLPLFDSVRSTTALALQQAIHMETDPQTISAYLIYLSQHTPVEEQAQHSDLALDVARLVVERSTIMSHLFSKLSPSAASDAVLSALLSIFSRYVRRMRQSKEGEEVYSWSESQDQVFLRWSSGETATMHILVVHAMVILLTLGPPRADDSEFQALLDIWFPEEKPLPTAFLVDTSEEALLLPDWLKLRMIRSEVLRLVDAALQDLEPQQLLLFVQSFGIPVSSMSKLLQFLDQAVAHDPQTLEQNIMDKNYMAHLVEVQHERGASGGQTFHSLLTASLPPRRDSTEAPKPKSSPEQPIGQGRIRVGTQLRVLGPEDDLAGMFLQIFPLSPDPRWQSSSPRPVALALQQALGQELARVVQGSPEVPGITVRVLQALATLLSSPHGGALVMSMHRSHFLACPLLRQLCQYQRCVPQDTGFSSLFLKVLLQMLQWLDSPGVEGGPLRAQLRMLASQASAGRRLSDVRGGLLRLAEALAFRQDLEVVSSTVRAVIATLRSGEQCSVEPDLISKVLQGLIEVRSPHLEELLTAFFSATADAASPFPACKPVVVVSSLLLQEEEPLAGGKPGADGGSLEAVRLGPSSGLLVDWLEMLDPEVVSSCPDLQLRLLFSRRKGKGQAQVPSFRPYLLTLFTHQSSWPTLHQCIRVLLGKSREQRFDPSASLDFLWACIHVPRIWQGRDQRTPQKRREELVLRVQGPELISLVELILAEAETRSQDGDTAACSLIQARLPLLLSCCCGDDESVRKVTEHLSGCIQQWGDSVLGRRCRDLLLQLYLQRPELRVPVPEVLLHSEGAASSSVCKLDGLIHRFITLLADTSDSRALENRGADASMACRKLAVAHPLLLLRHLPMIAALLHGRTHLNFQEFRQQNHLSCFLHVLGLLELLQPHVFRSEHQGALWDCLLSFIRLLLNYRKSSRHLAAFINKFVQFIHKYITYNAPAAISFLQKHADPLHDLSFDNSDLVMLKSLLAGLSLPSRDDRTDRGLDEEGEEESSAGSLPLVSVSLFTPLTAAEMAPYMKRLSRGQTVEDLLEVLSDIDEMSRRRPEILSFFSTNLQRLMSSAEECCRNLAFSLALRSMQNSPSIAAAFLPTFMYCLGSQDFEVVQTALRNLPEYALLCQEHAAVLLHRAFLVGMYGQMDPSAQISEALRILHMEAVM
UniProt Q12906, whole entry, looked up: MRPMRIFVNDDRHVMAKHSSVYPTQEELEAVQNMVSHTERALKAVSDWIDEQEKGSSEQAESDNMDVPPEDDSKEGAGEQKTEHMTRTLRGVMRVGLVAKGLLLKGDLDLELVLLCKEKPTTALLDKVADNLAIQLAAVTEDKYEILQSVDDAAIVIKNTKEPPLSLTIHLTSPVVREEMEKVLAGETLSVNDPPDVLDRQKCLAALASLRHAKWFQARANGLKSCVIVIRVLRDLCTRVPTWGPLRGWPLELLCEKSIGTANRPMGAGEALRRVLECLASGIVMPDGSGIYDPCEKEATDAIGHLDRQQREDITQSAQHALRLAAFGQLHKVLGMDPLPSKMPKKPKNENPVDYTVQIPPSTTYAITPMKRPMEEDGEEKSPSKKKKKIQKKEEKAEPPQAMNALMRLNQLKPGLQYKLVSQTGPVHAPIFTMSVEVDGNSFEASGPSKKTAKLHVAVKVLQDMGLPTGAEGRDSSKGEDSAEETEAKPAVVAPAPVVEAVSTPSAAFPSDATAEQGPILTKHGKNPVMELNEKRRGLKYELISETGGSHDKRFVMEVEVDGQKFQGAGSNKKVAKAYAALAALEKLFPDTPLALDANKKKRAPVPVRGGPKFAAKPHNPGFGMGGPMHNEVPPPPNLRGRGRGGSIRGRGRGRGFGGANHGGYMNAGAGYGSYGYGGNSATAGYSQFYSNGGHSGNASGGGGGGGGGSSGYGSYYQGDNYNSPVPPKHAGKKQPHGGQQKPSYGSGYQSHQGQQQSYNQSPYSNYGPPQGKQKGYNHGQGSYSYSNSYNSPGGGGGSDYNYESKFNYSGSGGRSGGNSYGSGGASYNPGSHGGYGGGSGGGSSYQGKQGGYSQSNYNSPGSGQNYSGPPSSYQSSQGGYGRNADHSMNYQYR
UniProt O14920: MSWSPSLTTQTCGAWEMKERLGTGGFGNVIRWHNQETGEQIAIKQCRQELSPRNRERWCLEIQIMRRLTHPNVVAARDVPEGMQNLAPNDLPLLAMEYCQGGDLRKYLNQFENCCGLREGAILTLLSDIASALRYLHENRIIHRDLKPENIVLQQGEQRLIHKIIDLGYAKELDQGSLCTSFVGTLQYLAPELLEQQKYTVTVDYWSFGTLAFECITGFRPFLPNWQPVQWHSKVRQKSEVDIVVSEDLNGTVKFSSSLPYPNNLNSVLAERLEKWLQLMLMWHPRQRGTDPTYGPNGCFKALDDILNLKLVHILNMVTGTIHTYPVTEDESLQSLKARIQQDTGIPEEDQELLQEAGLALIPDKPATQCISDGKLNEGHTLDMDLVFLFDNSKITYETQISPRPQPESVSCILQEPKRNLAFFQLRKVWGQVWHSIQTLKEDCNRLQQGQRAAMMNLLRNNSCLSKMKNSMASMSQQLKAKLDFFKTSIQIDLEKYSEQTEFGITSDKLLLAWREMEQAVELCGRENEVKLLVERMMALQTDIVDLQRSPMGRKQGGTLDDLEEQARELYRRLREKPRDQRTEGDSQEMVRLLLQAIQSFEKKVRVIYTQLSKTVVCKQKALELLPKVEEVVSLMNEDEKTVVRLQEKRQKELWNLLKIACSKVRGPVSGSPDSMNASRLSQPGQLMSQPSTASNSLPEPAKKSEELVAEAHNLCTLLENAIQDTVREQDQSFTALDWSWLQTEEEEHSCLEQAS
UniProt P24593, whole entry, looked up: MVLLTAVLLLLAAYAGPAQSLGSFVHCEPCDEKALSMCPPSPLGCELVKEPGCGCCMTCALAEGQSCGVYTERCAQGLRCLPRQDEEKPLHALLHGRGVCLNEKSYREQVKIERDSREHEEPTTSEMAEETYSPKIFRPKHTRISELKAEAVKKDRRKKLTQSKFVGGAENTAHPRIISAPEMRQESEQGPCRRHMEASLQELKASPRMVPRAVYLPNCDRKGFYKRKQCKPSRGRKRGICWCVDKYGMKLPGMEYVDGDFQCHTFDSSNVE
UniProt O14713: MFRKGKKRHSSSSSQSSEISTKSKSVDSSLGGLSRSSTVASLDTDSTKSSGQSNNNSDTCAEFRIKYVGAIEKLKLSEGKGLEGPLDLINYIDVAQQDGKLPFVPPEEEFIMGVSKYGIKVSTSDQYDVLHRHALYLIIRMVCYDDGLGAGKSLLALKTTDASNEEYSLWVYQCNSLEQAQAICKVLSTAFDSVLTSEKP

The list shows a part of the results.

Compound in the first assay: O=C(CCCCCCC(=O)Nc1ccccc1)NO [vorinostat]
In words: log2 fold change, soluble protein after heating vs DMSO (PISA); higher = thermal stabilisation; K562 cells, 10 uM, 30 min; active = over 0.2 and 3.5 SD of the protein, either way, in both replicates (recomputed). An outline of the steps: (§1)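 K562 cells at 2×10^6 cells/mL were given 10 μM compound for 30 min. Aliquots then went through 3 min of heating across 48°C-58°C, were pooled, and were extracted in PBS with 0.5% NP-40 at 4°C, and the supernatant after 21,000xg for 90 min was quantified by TMTpro 16plex LC-MS/MS with channel sums equalised. Thermal stability relative to control samples, from duplicates, is given as log2 fold change.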
As for IGLL5 (UniProt B9A064), the log2 fold change is inactive: 0.065.
As to IDUA (UniProt P35475), the log2 fold change was inactive: -0.103.
As for IMPDH2 (UniProt H0Y4R1), the log2 fold change is inactive: -0.078.
As to IL18R1 (UniProt Q13478), the log2 fold change was inactive: 0.032.
Take IFT27 (UniProt Q9BW83): the log2 fold change is inactive: -0.222.
In the case of IL2RG (UniProt P31785), the log2 fold change was inactive: -0.011.
Still for that read-out and setting: with INO80E (UniProt Q8NBZ0) the figure was inactive: 0.049; with IL1RAP isoform 5 (UniProt Q9NPH3), inactive: 0.271; with ING3 (UniProt Q9NXR8), inactive: 0.194.
As for IKZF1 (UniProt R9R4D9), the log2 fold change is inactive: -0.181.
For ISL2 (UniProt Q96A47), the log2 fold change was inactive: 0.029.
Still for that read-out and setting: under IRAK1 (UniProt P51617) stands inactive: 0.294.
Regarding IDS (UniProt P22304), the log2 fold change was inactive: -0.048.
IGSF8 (UniProt Q969P0): the log2 fold change was inactive: 0.195.
Same read-out and setting: with INTS1 (UniProt Q8N201) the figure was inactive: -0.065.

Compound in a further assay: O=C(CCCCCCNC(=O)c1cnc(N(c2ccccc2)c2ccccc2Cl)nc1)NO [citarinostat]
Described as above. An outline of the steps: as §1
For ITIH1 (UniProt P19827), the log2 fold change was inactive: 0.176.
With IGLL5 (UniProt B9A064), the log2 fold change was inactive: -0.032.
Take ITPR3 (UniProt Q14573): the log2 fold change was inactive: 0.068.
As for IFT20 isoform 2 (UniProt Q8IY31), the log2 fold change was inactive: 0.019.
Consider ILF3 (UniProt Q12906), for which the log2 fold change is inactive: -0.134.
As for IQSEC2 (UniProt Q5JU85), the log2 fold change was inactive: -0.08.
Take IGHG1 (UniProt P01857): the log2 fold change was inactive: -0.052.
On the same count and under the same terms, under INO80E (UniProt Q8NBZ0) stands inactive: -0.114; under IL1RAP isoform 5 (UniProt Q9NPH3), inactive: -0.012; under ING3 (UniProt Q9NXR8), inactive: 0.08.
As for ISL2 (UniProt Q96A47), the log2 fold change was inactive: -0.104.
Regarding IRAK1 (UniProt P51617), the log2 fold change was inactive: -0.063.
On the same count and under the same terms, with ING5 (UniProt Q8WYH8) the figure was inactive: 0.115.
In the case of IGSF1 isoform 4 (UniProt Q8N6C5), the log2 fold change was inactive: 0.059.
Same read-out and setting: with IGSF8 (UniProt Q969P0) the figure was inactive: 0.049; with INHBE (UniProt P58166), inactive: 0.
With IKBKB (UniProt O14920), the log2 fold change was inactive: -0.109.
As to IRF2BP1 (UniProt Q8IU81), the log2 fold change is inactive: 0.077.
On to ITPRID2 (UniProt P28290), for which the log2 fold change is inactive: -0.029.
Turning to INTS1 (UniProt Q8N201), the log2 fold change is inactive: -0.179.
Same read-out and setting: with IGLC3 (UniProt P0DOY3) the figure was inactive: 0.126.

Compound in the next assay: O=C(O)c1ccc2c(c1)nc(Nc1cccc(Cl)c1)c1ccncc12 [silmitasertib]
The description is as above. An outline of the steps: as §1
ITIH1 (UniProt P19827): the log2 fold change was inactive: 0.504.
As for IGLL5 (UniProt B9A064), the log2 fold change is inactive: 0.397.
IGFBP5 (UniProt P24593): the log2 fold change is inactive: 0.055.
Turning to IFT20 isoform 2 (UniProt Q8IY31), the log2 fold change was inactive: 0.028.
Turning to IDUA (UniProt P35475), the log2 fold change is inactive: -0.002.
Still for that read-out and setting: under ILF3 (UniProt Q12906) stands inactive: 0.181; under IMPDH2 (UniProt H0Y4R1), inactive: 0.008.
Still for that read-out and setting: with IL18R1 (UniProt Q13478) the figure was inactive: 0.035; with IQSEC2 (UniProt Q5JU85), inactive: 0.177.
As for IGHG1 (UniProt P01857), the log2 fold change is inactive: -0.002.
Same read-out and setting: under INO80E (UniProt Q8NBZ0) stands inactive: 0.033.
Consider IRAK1 (UniProt P51617), for which the log2 fold change was inactive: 0.057.
Turning to ING5 (UniProt Q8WYH8), the log2 fold change was inactive: -0.013.
Regarding IGSF1 isoform 4 (UniProt Q8N6C5), the log2 fold change is inactive: 0.123.
Same read-out and setting: with IGSF8 (UniProt Q969P0) the figure was inactive: -0.031; with INHBE (UniProt P58166), inactive: 0.08; with IKBKB (UniProt O14920), inactive: 0.076.
For the target IRF2BP1 (UniProt Q8IU81), the log2 fold change was inactive: -0.109.
Regarding INTS1 (UniProt Q8N201), the log2 fold change was inactive: -0.091.
The same measure, in the same setting: with IKZF1 isoform 2 (UniProt Q13422) the figure was inactive: 0.063.
For the target IGLC3 (UniProt P0DOY3), the log2 fold change was inactive: 0.602.

Compound in the next assay: O=C1NC(=O)C(c2cnc3ccccn23)=C1c1cn2c3c(cc(F)cc13)CN(C(=O)N1CCCCC1)CC2
The assay is described as above. An outline of the steps:
as §1
Regarding IGFBP5 (UniProt P24593), the log2 fold change is inactive: -0.078.
As to IDUA (UniProt P35475), the log2 fold change is inactive: -0.135.
As for ILF3 (UniProt Q12906), the log2 fold change was inactive: 0.174.
As for IMPDH2 (UniProt H0Y4R1), the log2 fold change is inactive: 0.
In the case of IL2RG (UniProt P31785), the log2 fold change is inactive: -0.091.
On to IL1RAP isoform 5 (UniProt Q9NPH3), for which the log2 fold change was inactive: -0.006.
For ING4 (UniProt Q9UNL4), the log2 fold change is inactive: -0.006.
On to ITPR1 (UniProt Q14643), for which the log2 fold change was inactive: 0.
Take IRAK1 (UniProt P51617): the log2 fold change is inactive: 0.102.
IGSF8 (UniProt Q969P0): the log2 fold change is inactive: -0.027.
For the target IKBKB (UniProt O14920), the log2 fold change was inactive: 0.3.
For ITGB1BP1 (UniProt O14713), the log2 fold change was inactive: -0.028.
Regarding ITPRID2 (UniProt P28290), the log2 fold change was inactive: -0.208.
As to INTS1 (UniProt Q8N201), the log2 fold change is inactive: -0.168.
